Literature values in patent US9132082B2, “Compositions and methods for inhibiting gastric acid secretion” (Vecta, Ltd., priority 2005, dated 2015).
At least one compound was matched to its structure with a doubt left.

Test system: frog mucosa
Conditions: ex vivo model of frog mucosa; cited from earlier work

CC(=O)C(=O)O [pyruvate]
proton secretion: may stimulates proton secretion
